# Experimental data as given in article PMC3956929.
# Results are given in words; binding and its absence hold for the method and conditions named. Binding calls can cover weak binding; strength is not graded here. Tags and fused reporters may be left off the sequences shown. For part of these data: In cells and extracts the contact can be indirect.
# Assays:
# [1] = molecular target: T1, TetR-fused Bombyx mori Ago3 (Bombyx mori) (UniProt A9ZSZ2); test: two-hybrid; TetR-based insect two-hybrid in BmN4 cells: TetR bait (no typical NLS), p65 AD prey, 9xtetO-IE2mini(L)-Luc reporter, luciferase at 72 h post-transfection, relative to the pUC18 control prey
# T1 sequence: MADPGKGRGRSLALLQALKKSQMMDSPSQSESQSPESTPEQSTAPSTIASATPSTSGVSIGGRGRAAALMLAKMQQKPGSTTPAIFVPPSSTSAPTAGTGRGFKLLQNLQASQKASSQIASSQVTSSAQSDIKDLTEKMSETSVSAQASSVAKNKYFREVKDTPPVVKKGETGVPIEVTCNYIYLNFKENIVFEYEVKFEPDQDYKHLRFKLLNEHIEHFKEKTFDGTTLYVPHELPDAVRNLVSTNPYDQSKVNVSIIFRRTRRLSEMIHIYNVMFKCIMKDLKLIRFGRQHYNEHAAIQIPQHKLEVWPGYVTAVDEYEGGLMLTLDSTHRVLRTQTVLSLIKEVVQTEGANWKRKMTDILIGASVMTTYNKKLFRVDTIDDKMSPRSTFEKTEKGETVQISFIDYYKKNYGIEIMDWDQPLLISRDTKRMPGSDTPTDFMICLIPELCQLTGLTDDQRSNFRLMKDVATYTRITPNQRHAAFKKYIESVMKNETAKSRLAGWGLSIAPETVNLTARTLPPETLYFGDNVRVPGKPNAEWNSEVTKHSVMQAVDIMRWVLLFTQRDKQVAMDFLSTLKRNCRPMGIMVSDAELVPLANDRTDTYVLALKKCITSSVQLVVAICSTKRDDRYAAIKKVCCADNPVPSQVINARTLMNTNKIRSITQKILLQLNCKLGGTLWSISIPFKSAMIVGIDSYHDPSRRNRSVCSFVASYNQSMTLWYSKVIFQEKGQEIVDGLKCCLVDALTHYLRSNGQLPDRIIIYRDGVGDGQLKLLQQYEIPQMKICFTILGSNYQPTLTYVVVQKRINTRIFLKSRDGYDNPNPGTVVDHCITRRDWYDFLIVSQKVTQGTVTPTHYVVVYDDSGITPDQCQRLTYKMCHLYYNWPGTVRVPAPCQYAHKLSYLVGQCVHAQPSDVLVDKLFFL
# [2] = molecular target: T2, TetR-fused Bombyx mori Siwi (Bombyx mori) (UniProt A8D8P8); test: as above
# T2 sequence: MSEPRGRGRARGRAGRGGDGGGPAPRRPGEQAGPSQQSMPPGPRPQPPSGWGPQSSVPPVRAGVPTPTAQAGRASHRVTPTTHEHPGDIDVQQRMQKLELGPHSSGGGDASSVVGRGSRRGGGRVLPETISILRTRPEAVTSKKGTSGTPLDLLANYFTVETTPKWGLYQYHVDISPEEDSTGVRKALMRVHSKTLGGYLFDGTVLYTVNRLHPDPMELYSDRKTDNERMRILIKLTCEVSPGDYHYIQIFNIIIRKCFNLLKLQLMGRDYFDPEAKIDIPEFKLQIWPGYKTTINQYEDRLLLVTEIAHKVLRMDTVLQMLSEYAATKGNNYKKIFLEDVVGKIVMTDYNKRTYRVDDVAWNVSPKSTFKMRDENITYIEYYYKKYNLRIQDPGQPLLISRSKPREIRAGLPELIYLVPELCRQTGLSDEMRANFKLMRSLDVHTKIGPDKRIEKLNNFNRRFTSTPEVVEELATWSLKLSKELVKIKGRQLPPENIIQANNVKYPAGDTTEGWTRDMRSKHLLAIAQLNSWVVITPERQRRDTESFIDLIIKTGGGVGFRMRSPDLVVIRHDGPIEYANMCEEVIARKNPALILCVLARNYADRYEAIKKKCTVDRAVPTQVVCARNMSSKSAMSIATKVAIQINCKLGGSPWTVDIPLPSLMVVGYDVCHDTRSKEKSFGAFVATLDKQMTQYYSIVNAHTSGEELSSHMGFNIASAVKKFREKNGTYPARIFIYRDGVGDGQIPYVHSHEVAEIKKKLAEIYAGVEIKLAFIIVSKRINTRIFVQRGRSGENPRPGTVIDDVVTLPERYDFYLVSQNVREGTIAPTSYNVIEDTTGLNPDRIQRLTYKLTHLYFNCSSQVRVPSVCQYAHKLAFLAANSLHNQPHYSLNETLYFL
# [3] = molecular target: T3, GAL4 DNA-binding domain-fused N-terminal domain of Bombyx mori Ago3 (Ago3NT) (Bombyx mori) (UniProt A9ZSZ2); test: two-hybrid; insect two-hybrid (I2H) in BmN4 cells: GAL4 DBD bait, p65 AD prey, 4xUAS-TATA-Luc reporter, luciferase at 72 h post-transfection, relative to the pUC18 control prey; also in BmN4-SID1 cells 72 h after dsRNA against HP1a, HP1b, Ago3, Siwi, putative piRNA-related genes or GFP (control)
# T3 sequence: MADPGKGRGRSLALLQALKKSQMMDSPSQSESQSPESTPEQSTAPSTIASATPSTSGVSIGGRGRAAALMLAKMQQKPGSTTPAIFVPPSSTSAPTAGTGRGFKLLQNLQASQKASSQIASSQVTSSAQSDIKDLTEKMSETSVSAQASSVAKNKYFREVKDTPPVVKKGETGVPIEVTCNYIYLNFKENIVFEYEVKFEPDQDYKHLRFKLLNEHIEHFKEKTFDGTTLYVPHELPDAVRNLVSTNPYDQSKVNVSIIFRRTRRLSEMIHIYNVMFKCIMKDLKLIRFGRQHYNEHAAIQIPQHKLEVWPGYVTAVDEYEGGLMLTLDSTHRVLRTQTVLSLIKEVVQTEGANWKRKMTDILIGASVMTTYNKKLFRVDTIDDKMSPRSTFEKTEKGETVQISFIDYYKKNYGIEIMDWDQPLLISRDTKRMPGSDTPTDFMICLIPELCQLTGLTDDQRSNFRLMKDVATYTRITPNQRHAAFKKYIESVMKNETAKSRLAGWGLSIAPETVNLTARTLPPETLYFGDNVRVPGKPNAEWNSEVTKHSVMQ
# [4] = molecular target: T4, GAL4 DNA-binding domain-fused N-terminal domain of Bombyx mori Siwi (SiwiNT) (Bombyx mori) (UniProt A8D8P8); test: as above
# T4 sequence: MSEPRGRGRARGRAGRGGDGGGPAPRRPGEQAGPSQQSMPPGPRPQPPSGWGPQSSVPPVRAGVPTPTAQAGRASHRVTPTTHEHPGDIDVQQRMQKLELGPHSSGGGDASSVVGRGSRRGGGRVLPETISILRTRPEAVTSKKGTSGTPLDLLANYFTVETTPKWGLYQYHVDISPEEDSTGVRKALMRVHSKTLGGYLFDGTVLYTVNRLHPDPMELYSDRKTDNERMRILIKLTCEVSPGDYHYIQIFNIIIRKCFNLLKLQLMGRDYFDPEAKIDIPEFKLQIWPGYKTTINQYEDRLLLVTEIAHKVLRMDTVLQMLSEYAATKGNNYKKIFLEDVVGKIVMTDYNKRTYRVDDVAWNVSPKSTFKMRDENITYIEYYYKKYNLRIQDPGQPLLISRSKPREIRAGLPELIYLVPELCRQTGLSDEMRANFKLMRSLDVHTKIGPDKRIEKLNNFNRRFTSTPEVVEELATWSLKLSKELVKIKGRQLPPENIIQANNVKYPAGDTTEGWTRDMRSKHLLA
# [5] = molecular target: T5, Bombyx mori Ago3 fused to the split Venus fragment of pnVW (pNV-Ago3) (Bombyx mori) (UniProt A9ZSZ2); test: split reporter; BiFC in BmN4 cells; 100 ng of each expression plasmid (fusions in pnVW or pcCW) co-transfected; Venus fluorescence by microscopy
# T5 sequence: T1 sequence
# [6] = molecular target: T6, Bombyx mori Siwi fused to the split Venus fragment of pnVW (pNV-Siwi) (Bombyx mori) (UniProt A8D8P8); test: as above
# T6 sequence: T2 sequence
binding [1],binding [2],binding [3],binding [4],binding [5],binding [6],Substance
binds weakly,binds weakly,binds,binds,,,p65 activation domain-fused Bombyx mori HP1a (pAD-HP1a)
,,,,binds weakly,binds weakly,Bombyx mori HP1a fused to the split Cerulean fragment of pcCW (pCC-HP1a)
